Experimental data taken from PubChem BioAssay AID2685 (National Center for Advancing Translational Sciences (NCATS), 2010).
Some of the results follow. These are further read-outs of the screen, such as a control signal, another cell line or another target. No call is given for them. Most of these compounds were active or inconclusive in the main read-out, so they are no random draw. Potencies come from curve fits of mixed quality, noted in brackets.

Test: qHTS Assay for Lipid Storage Modulators in Drosophila S3 Cells;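 on cell number change: cells counted by Cell Tracker Red CMTPX staining in the red channel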
Conditions: BODIPY lipid droplet fluorescence, 18-24 h; for cell number change: measured here: cell count max response, cells fed with added oleic acid
In short: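 Laser-scanning cytometry quantifies lipid droplet accumulation (500–530 nm total intensity; droplet/cell object ratio) in oleic acid-fed (400 uM added) Drosophila S3 cells treated with a concentration series. 20 uM Triacsin C defined 100% inhibition.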

[1] = measured here: cell number channel AC50, cells fed with added oleic acid
[2] = measured here: lipid fluorescence (Fed channel) AC50, cells fed with added oleic acid

Row | SMILES | cell number change | AC50 [1] | AC50 [2]
1 | Cc1ccc(/C([O-])=C(/C(=S)NCc2ccccc2)[n+]2ccccc2)cc1[N+](=O)[O-] | 1.78% | – | –
2 | NC(=O)c1ccc(N2CCN(c3ccccc3O)CC2)c([N+](=O)[O-])c1 | – | 0.103 µM [rising, single point] | 0.116 µM [rising, full curve]
3 | O=C(COc1ccc(Br)cc1Br)NC(=S)N1CCCc2ccccc21 | 40% | 8.2 µM [rising, partial curve] | 6.51 µM [rising, single point]
4 | OC(CN1CCOCC1)CN(c1ccccc1)c1ccccc1 (stereo not drawn) | 1.11% | – | –
5 | O=C(CC12CC3CC(CC(C3)C1)C2)Nc1cccc2ncccc12 | 74.5% | 13 µM [rising, partial curve] | –
6 | O=[N+]([O-])c1cc(Cl)c(O)c2ncccc12 | 31.1% | – | –
7 | Cc1cc(-c2nnc(SCC(=O)NC3CC3)n2C(C)C)cs1 | 20.8% | 0.158 µM [rising, full curve, poor fit] | –
8 | Cc1cc(C)n2nc(SCc3nnc(SCc4ccccc4)s3)nc2n1 | -32.1% | 18.4 µM [falling, single point] | –
9 | Cc1ccc(S(=O)(=O)NCC(=O)OCC(=O)N2CCc3ccccc32)cc1 | 12.5% | 0.00411 µM [rising, full curve, poor fit] | 0.291 µM [falling, full curve]
10 | O=C(N[C@@H](Cc1c[nH]c2ccccc12)C(=O)O)c1ccccc1Cl | -64.6% | 29.1 µM [falling, partial curve, poor fit] | –
11 | CCN(CC)C(=O)c1ccccc1NS(=O)(=O)c1ccc(OC)c(C(=O)N2CCOCC2)c1 | -14.5% | – | –
12 | CC1(C)CC2CC(C)(CN2S(=O)(=O)c2ccc(F)cc2F)C1 (stereo not drawn) | -6.27% | – | 29.1 µM [falling, single point]
13 | N#CC(NC(=O)OCc1ccccc1)c1ccccc1 (stereo not drawn) | 13.1% | – | 0.326 µM [rising, partial curve, poor fit]
14 | CCOc1cc(C(=S)N2CCOCC2)ccc1OC(=O)c1cccc(C)c1 | -1.14% | – | 16.4 µM [falling, single point]
15 | COc1ccc(NC(=O)CSc2nnc(Cc3ccccc3)c(=O)n2N)cc1 | -75% | 9.2 µM [falling, partial curve] | 0.651 µM [rising, single point]
16 | O=C1CC(NS(=O)(=O)c2cccnc2)CN1c1ccccc1 (stereo not drawn) | 8.84% | – | –
17 | COC/C=C/C1=CC2=CC(=O)C(C)(OC(=O)c3cnc4ccccc4n3)C(=O)C2=CN1C1CCCCC1 (stereo not drawn) | 15% | 2.31 µM [rising, partial curve] | –
18 | CN(C)/C=N/c1c(C#N)cnn1-c1ccccc1 | 7.35% | – | 0.82 µM [rising, single point]
19 | COCCCNC(=O)CC(NS(=O)(=O)c1ccc(OC)cc1)c1ccc(OC)cc1 (stereo not drawn) | -1.5% | – | 0.116 µM [falling, full curve, poor fit]
20 | O=C1CC(c2ccccc2)CC(O)=C1C=NCCCO (stereo not drawn) | 4.54% | – | 0.116 µM [falling, full curve, poor fit]
21 | S=C(Nc1ccc2c(c1)OCO2)NC1CCN(Cc2ccccc2)CC1 | – | 0.58 µM [rising, single point] | –

Row | SMILES | cell number change | AC50 [1] | AC50 [2]
22 | Cc1ccc(C)c(NC(=O)CN2C(=O)CNC2=O)c1 | – | 0.00461 µM [rising, full curve, poor fit] | –
23 | CC(=O)N1CCN(c2ccc(S(C)(=O)=O)cc2[N+](=O)[O-])CC1 | -53.8% | 6.51 µM [falling, full curve] | –
24 | Cc1nc(N2CCCCC2)c2ccsc2n1 | 59.7% | 29.1 µM [rising, single point] | 20.6 µM [rising, partial curve]
25 | COc1ccccc1-c1cc(C(=O)NC(C)C)no1 | -2.3% | 7.31 µM [rising, partial curve] | –
26 | O=C(c1ccccc1)c1ccc(Oc2ncccn2)cc1 | 18.8% | 2.59 µM [rising, partial curve] | –
27 | COc1ccc(CCC(C)N2CCC(CO)(Cc3ccccc3)CC2)cc1 (stereo not drawn) | -24.7% | – | –
28 | O=C(NC(=S)Nc1ccc(N2CCCC2)cc1)c1ccccc1[N+](=O)[O-] | 12.9% | – | 0.103 µM [rising, full curve, poor fit]
29 | O=C(O)CSc1nnc(CNc2ccc(Cl)cc2)n1Cc1ccccc1 | -24.4% | – | 20.6 µM [falling, partial curve]
30 | COc1ccc(S(=O)(=O)N2CCN(C(=O)c3cc(C)oc3C)CC2)cc1 | 16.9% | 0.461 µM [rising, full curve, poor fit] | –
31 | Cc1ccc(NS(=O)(=O)c2ccc(C3CCCCC3)cc2)cc1 | -69.2% | 11.6 µM [falling, partial curve] | –
32 | CCOc1ccccc1OCCC(=O)N1CCN(S(=O)(=O)c2ccccc2[N+](=O)[O-])CC1 | -36.2% | – | 4.11 µM [falling, partial curve]
33 | CCn1cc(C(=O)OCc2ccccc2)c(=O)c2ccc(C)nc21 | 5.47% | – | 0.116 µM [rising, full curve, poor fit]
34 | COc1nc(N/N=C/c2ccc(-c3ccccc3[N+](=O)[O-])o2)nc(N2CCOCC2)n1 | – | – | 0.326 µM [rising, single point]
35 | COc1ccc2c(c1OC)C(=O)N(c1ccccn1)C2 | -10.3% | – | –
36 | NC(=O)C(c1ccccc1)C1CCCC1 (stereo not drawn) | -41% | 20.6 µM [falling, single point] | 29.1 µM [falling, single point]
37 | Cc1nc2c(C)cccc2cc1C(=O)N/N=C/c1ccc(O)cc1 | 40.6% | 18.4 µM [rising, single point] | 16.4 µM [rising, single point]
38 | N#CCC(=O)NNC(=S)Nc1ccccc1C(F)(F)F | -43.1% | 35.5 µM [falling, partial curve, poor fit] | –
39 | CC1CCCCN1CCNC(=O)C1CCN(S(=O)(=O)c2cccc3nsnc23)CC1 (stereo not drawn) | 2.28% | – | 32.6 µM [rising, single point]
40 | CCCn1c2ccccc2c2cn[nH]c(=O)c21 | 18.2% | – | 20.6 µM [rising, single point]
41 | Cc1ccc(F)cc1NC(=O)C1CCCN(c2ncccn2)C1 (stereo not drawn) | – | 0.0731 µM [rising, full curve, poor fit] | 0.0651 µM [rising, full curve, poor fit]
42 | Cc1ccc(NC(=O)Nc2nnc(CSCCOc3ccc(Cl)cc3)s2)cc1 | -17.3% | – | 18.4 µM [rising, single point]

Row | SMILES | cell number change | AC50 [1] | AC50 [2]
43 | Cn1c(=O)c2c(nc(Oc3ccc(-c4ccccc4)cc3)n2C)n(C)c1=O | 13.1% | 6.51 µM [rising, single point] | 4.11 µM [rising, single point]
44 | CCCN1C(=O)/C(=C\C=C2/C=CN(CC)c3ccccc32)SC1=S | -27.8% | 2.31 µM [falling, partial curve] | 0.82 µM [falling, full curve, poor fit]
45 | CN(CCOc1ccccc1)CC(=O)Nc1ccc(Br)cc1F | 5.26% | – | –
46 | CCOC(=O)Cc1nn(C)c(=O)c2ccccc12 | 22.2% | – | 29.1 µM [rising, single point]
47 | COc1ccc(-c2ccc(C#N)c(SCC(=O)NCc3ccco3)n2)cc1OC | 20.1% | – | 0.13 µM [rising, full curve, poor fit]
48 | O=C1CC(N2CCN(c3ccc(Cl)cc3)CC2)C(=O)N1c1ccccc1 (stereo not drawn) | -19.7% | 2.31 µM [falling, single point] | –
49 | O=C(CC1SCCNC1=O)Nc1cccc(Cl)c1 (stereo not drawn) | 3.75% | – | 10.3 µM [falling, partial curve]
50 | Cc1ccc(C(=O)NCc2ccccn2)c(Cl)c1 | 21.4% | – | –
51 | COc1ccc(OC)c(CN2CCN(C(=O)c3ccco3)CC2)c1 | 4.4% | – | 29.1 µM [rising, single point]
52 | C=CCNC(=O)c1ccccc1NS(=O)(=O)c1ccccc1 | -5.25% | – | 1.46 µM [rising, full curve]
53 | Cc1[nH]cnc1C(=O)N/N=C/c1c(Cl)cccc1Cl | 18.3% | – | 2.31 µM [rising, partial curve]
54 | CCOC(=O)C(NCc1ccc2c(c1)OCO2)(NC(=O)c1ccccc1)C(F)(F)F (stereo not drawn) | -59.2% | 18.4 µM [falling, partial curve] | 7.31 µM [falling, partial curve]
55 | COc1cc(/C=N/NC(=O)/C(=C\c2ccc([N+](=O)[O-])cc2)NC(=O)c2ccccc2)cc(OC)c1O | -0.35% | – | –
56 | c1ccc2[nH]c(CN3CCOCC3)nc2c1 | 43.1% | 10.3 µM [rising, partial curve, poor fit] | –
57 | CCCn1cc(NC(=O)c2cc3n(n2)C(C(F)(F)F)CC(c2ccccc2)N3)cn1 (stereo not drawn) | 225% | 2.59 µM [rising, partial curve] | 0.366 µM [rising, full curve]
58 | O=C(COC(=O)c1ccc(O)cc1O)c1ccc(Cl)cc1 | 35.7% | 29.1 µM [rising, single point] | –
59 | COc1ccc(C2C(=O)c3ccccc3C2=O)cc1OC | 20.2% | 3.66 µM [falling, single point] | 3.66 µM [falling, single point]
60 | Cc1ccc2c(c1)NC(=O)C(CC(=O)NCCCN1CCN(c3cc(C)ccc3C)CC1)O2 (stereo not drawn) | – | – | 32.6 µM [rising, single point]
61 | COc1ccc(Cl)cc1NC(=O)NC(C)C | – | – | 6.51 µM [falling, single point]

An excerpt of these results, as tab-separated lines:
Row	SMILES	cell number change	AC50 [1]	AC50 [2]
41	Cc1ccc(F)cc1NC(=O)C1CCCN(c2ncccn2)C1 (stereo not drawn)	–	0.0731 µM [rising, full curve, poor fit]	0.0651 µM [rising, full curve, poor fit]
42	Cc1ccc(NC(=O)Nc2nnc(CSCCOc3ccc(Cl)cc3)s2)cc1	-17.3%	–	18.4 µM [rising, single point]
43	Cn1c(=O)c2c(nc(Oc3ccc(-c4ccccc4)cc3)n2C)n(C)c1=O	13.1%	6.51 µM [rising, single point]	4.11 µM [rising, single point]
44	CCCN1C(=O)/C(=C\C=C2/C=CN(CC)c3ccccc32)SC1=S	-27.8%	2.31 µM [falling, partial curve]	0.82 µM [falling, full curve, poor fit]
45	CN(CCOc1ccccc1)CC(=O)Nc1ccc(Br)cc1F	5.26%	–	–
46	CCOC(=O)Cc1nn(C)c(=O)c2ccccc12	22.2%	–	29.1 µM [rising, single point]
47	COc1ccc(-c2ccc(C#N)c(SCC(=O)NCc3ccco3)n2)cc1OC	20.1%	–	0.13 µM [rising, full curve, poor fit]
48	O=C1CC(N2CCN(c3ccc(Cl)cc3)CC2)C(=O)N1c1ccccc1 (stereo not drawn)	-19.7%	2.31 µM [falling, single point]	–
49	O=C(CC1SCCNC1=O)Nc1cccc(Cl)c1 (stereo not drawn)	3.75%	–	10.3 µM [falling, partial curve]
50	Cc1ccc(C(=O)NCc2ccccn2)c(Cl)c1	21.4%	–	–
51	COc1ccc(OC)c(CN2CCN(C(=O)c3ccco3)CC2)c1	4.4%	–	29.1 µM [rising, single point]
52	C=CCNC(=O)c1ccccc1NS(=O)(=O)c1ccccc1	-5.25%	–	1.46 µM [rising, full curve]
53	Cc1[nH]cnc1C(=O)N/N=C/c1c(Cl)cccc1Cl	18.3%	–	2.31 µM [rising, partial curve]
54	CCOC(=O)C(NCc1ccc2c(c1)OCO2)(NC(=O)c1ccccc1)C(F)(F)F (stereo not drawn)	-59.2%	18.4 µM [falling, partial curve]	7.31 µM [falling, partial curve]
55	COc1cc(/C=N/NC(=O)/C(=C\c2ccc([N+](=O)[O-])cc2)NC(=O)c2ccccc2)cc(OC)c1O	-0.35%	–	–
56	c1ccc2[nH]c(CN3CCOCC3)nc2c1	43.1%	10.3 µM [rising, partial curve, poor fit]	–
57	CCCn1cc(NC(=O)c2cc3n(n2)C(C(F)(F)F)CC(c2ccccc2)N3)cn1 (stereo not drawn)	225%	2.59 µM [rising, partial curve]	0.366 µM [rising, full curve]
58	O=C(COC(=O)c1ccc(O)cc1O)c1ccc(Cl)cc1	35.7%	29.1 µM [rising, single point]	–
